A short description of this data set: Quantification of erucamide in Arabidopsis leaves (GC-MS/MS). The conditions noted are these: faah mutants.

As to `CCCCCCCC/C=C\CCCCCCCCCCCC(N)=O` (single isomer, unassigned) [Compound T3SI-1, erucamide], the “more erucamide than in Col-0” value was found to be 40%.
